Results deposited as PubChem BioAssay AID720505 (Drosophila RNAi Screening Center, 2013)
In all, the deposit lists about 20,000 reagents; below is an unselected part of those with a known target gene and a result. Over the whole deposit, about 2,100 (10%) got an active call. 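Raw plate signals without normalisation; calls rest on control-based scores that were not deposited; replicate 2 separates called from uncalled poorly.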 Names joined by + are all predicted targets of the reagent. The record does not give: the amount of reagent, the time to read-out.

Aim: 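Knock-downs that reduce calcium influx once internal stores are emptied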 (primary screen)
Cells: Drosophila S2R+ cells
Knock-down reagent: long dsRNA against Drosophila genes
Treatment: thapsigargin (2 µM) in calcium-free buffer to empty internal stores, then 2 mM calcium added back
Detection: 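Stores emptied by 2 µM thapsigargin without calcium, then 2 mM calcium re-added; fluo-4 fluorescence followed by FLIPR in 384-well plates, per-well averaged endpoint, raw; two screen passes, some wells retested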
Scale: calcium signal and retest calcium signal: higher = more calcium entry after store depletion
Active means: 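About 1500 genes called as lowering calcium entry, by varying amounts, judged against per-plate control wells with STIM1 as positive and Rho1 as negative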
Meaning of the calls: active = called as lowering calcium entry; inactive = not called

| gene | DRSC id | calcium signal, replicate 1 | calcium signal, replicate 2 | retest calcium signal, replicate 1 | retest calcium signal, replicate 2 | call |
| --- | --- | --- | --- | --- | --- | --- |
| Smr | DRSC19495 | 134 | 81.3 | – | – | inactive |
| Smr | DRSC20288 | 121 | 95 | – | – | inactive |
| Smr | DRSC22986 | 128 | 151 | – | – | inactive |
| Gmd | DRSC03119 | 72.9 | 175 | – | – | inactive |
| Trxr2 | DRSC11900 | 89.6 | 112 | – | – | inactive |
| CG43673 + CG43672 | DRSC19452 | 73.8 | 110 | – | – | inactive |
| CG43673 + CG43672 | DRSC20108 | 80.7 | 127 | – | – | inactive |
| CG8929 | DRSC07298 | 193 | 112 | – | – | inactive |
| CG8929 | DRSC22847 | 83.2 | 111 | – | – | inactive |
| CG34235 + CG30058 + CG34312 | DRSC22142 | 64.2 | 175 | – | – | inactive |
| Pglym78 | DRSC16787 | 89 | 106 | – | – | inactive |
| ome | DRSC10282 | 61.9 | 70.8 | – | – | active |
| ome | DRSC11380 | 119 | 174 | – | – | inactive |
| Bro | DRSC08149 | 90.4 | 84.1 | – | – | inactive |
| CG3939 | DRSC18498 | 90.2 | 134 | – | – | inactive |
| CG14500 | DRSC06471 | 153 | 144 | – | – | inactive |
| CG15167 | DRSC02468 | 123 | 118 | – | – | inactive |
| CG6435 | DRSC06987 | 102 | 82.5 | – | – | inactive |
| veg (retired record) | DRSC07714 | 117 | 98.2 | – | – | inactive |
| CG1628 | DRSC18109 | 132 | 113 | – | – | inactive |
| Ankrd49 | DRSC01894 | 97.6 | 106 | – | – | inactive |
| Debcl | DRSC04965 | 197 | 121 | – | – | inactive |
| CG42594 | DRSC18053 | 186 | 86.8 | – | – | inactive |
| CG42594 | DRSC18408 | 222 | 87.7 | – | – | inactive |
| CG42594 | DRSC22978 | 121 | 86.1 | – | – | inactive |
| CG14851 | DRSC14975 | 90.9 | 110 | – | – | inactive |
| CG14851 | DRSC21500 | 148 | 121 | – | – | inactive |
| sand | DRSC07245 | 131 | 113 | – | – | inactive |
| Ric | DRSC07532 | 137 | 82.6 | – | – | inactive |
| Pmm2 | DRSC09780 | 84 | 118 | – | – | inactive |
| CG14183 | DRSC10182 | 99.3 | 135 | – | – | inactive |
| CG42346 | DRSC20622 | 180 | 112 | – | – | inactive |
| CG42346 | DRSC20644 | 171 | 88.1 | – | – | inactive |
| ea | DRSC16939 | 110 | 109 | – | – | inactive |
| CG34242 | DRSC09185 | 67.7 | 96.8 | – | – | inactive |
| CG4301 | DRSC19886 | 71.6 | 79.6 | – | – | active |
| CG4116 | DRSC18348 | 84.2 | 144 | – | – | inactive |
| CG33337 | DRSC13632 | 6335 | 162 | – | – | inactive |
| Mgat4b | DRSC10256 | 122 | 143 | – | – | inactive |
| CG1273 | DRSC08291 | 128 | 121 | – | – | inactive |
| CG9257 | DRSC03173 | 172 | 73.4 | – | – | inactive |
| mRpS21 | DRSC21357 | 117 | 121 | – | – | inactive |
| Ccdc56 + mtTFB1 | DRSC10809 | 95.7 | 113 | 73.8 | 92.1 | inactive |
| CG42342 | DRSC14378 | 78.8 | 96.5 | – | – | inactive |
| CG42342 | DRSC15010 | 129 | 124 | – | – | inactive |
| CG42342 | DRSC15011 | 140 | 83.5 | – | – | inactive |
| CG42342 | DRSC15012 | 98.8 | 86.3 | – | – | inactive |
| CG42342 | DRSC21791 | 163 | 81 | – | – | inactive |
| CG42342 | DRSC22861 | 69.1 | 76.8 | – | – | inactive |
| CG42342 | DRSC23112 | 120 | 150 | – | – | inactive |
| CG30287 | DRSC03875 | 110 | 8322 | – | – | inactive |
| ymp | DRSC14482 | 55.2 | 125 | – | – | active |
| Ppat-Dpck | DRSC09744 | 125 | 75.2 | – | – | inactive |
| CG5001 | DRSC00673 | 147 | 143 | – | – | inactive |
| ldd | DRSC20558 | 196 | 90.2 | – | – | inactive |
| ldd | DRSC22696 | 107 | 155 | – | – | inactive |
| APC10 | DRSC06071 | 143 | 154 | – | – | inactive |
| Sik3 | DRSC06505 | 168 | 105 | – | – | inactive |
| Sik3 | DRSC06771 | 71.4 | 161 | – | – | active |
| BTBD9 | DRSC18148 | 96.1 | 94.3 | – | – | inactive |
| BTBD9 | DRSC22371 | 84.8 | 162 | – | – | inactive |
| CG32633 | DRSC18987 | 92.5 | 67.7 | – | – | inactive |
| CG14244 | DRSC14739 | 88.4 | 130 | – | – | inactive |
| CG34444 | DRSC06435 | 70.7 | 134 | – | – | inactive |
| CG13405 | DRSC08310 | 102 | 101 | – | – | inactive |
| ZnT35C | DRSC01959 | 96.2 | 157 | – | – | inactive |
| RluA-2 | DRSC02939 | 90.1 | 106 | – | – | inactive |
| Jasper | DRSC16352 | 134 | 136 | – | – | inactive |
| CG4880 | DRSC19923 | 145 | 89.7 | – | – | inactive |
| Gr10b | DRSC19477 | 87.8 | 123 | – | – | inactive |
| CG7536 | DRSC20050 | 169 | 91.9 | – | – | inactive |
| CG8564 | DRSC10997 | 129 | 90.6 | – | – | inactive |
| puf | DRSC15875 | 254 | 140 | – | – | inactive |
| puf | DRSC23167 | 112 | 109 | – | – | inactive |
| nAChRalpha1 | DRSC17008 | 202 | 132 | – | – | inactive |
| SdhD | DRSC14215 | 142 | 133 | – | – | inactive |
| lncRNA:Hsromega | DRSC22875 | 73.7 | 156 | – | – | inactive |
| CG4213 | DRSC00641 | 159 | 130 | – | – | inactive |
| drpr | DRSC08143 | 83.1 | 60.5 | – | – | inactive |
| drpr | DRSC08525 | 66.4 | 118 | – | – | inactive |
| CG31676 | DRSC02387 | 177 | 108 | – | – | inactive |
| NELF-B | DRSC17734 | 133 | 135 | – | – | inactive |
| Arp6 | DRSC19326 | 138 | 111 | – | – | inactive |
| CG10280 | DRSC12133 | 70.3 | 174 | – | – | active |
| CG32054 | DRSC10684 | 88.9 | 109 | – | – | inactive |
| CG12057 | DRSC17797 | 76.6 | 121 | – | – | active |
| CG11635 | DRSC06075 | 121 | 109 | – | – | inactive |
| Dad | DRSC16642 | 178 | 180 | – | – | inactive |
| Pdh | DRSC11249 | 110 | 105 | – | – | inactive |
| CG7650 | DRSC10898 | 148 | 165 | 116 | 100 | inactive |
| Sec15 | DRSC16179 | 90.4 | 164 | – | – | inactive |
| MED18 | DRSC18549 | 159 | 170 | – | – | inactive |
| mRpL27 | DRSC22568 | 84.2 | 180 | – | – | inactive |
| CG14778 | DRSC17953 | 74.1 | 112 | – | – | inactive |
| eyg | DRSC11344 | 74.7 | 68 | – | – | active |
| eyg | DRSC23136 | 96.9 | 135 | – | – | inactive |
| fng | DRSC11455 | 8794 | 124 | – | – | inactive |
| fng | DRSC11887 | 150 | 86.7 | – | – | inactive |
| fng | DRSC21935 | 68.3 | 246 | – | – | inactive |
| CG4763 | DRSC04009 | 74 | 115 | – | – | active |
| CG4763 | DRSC04487 | 113 | 186 | – | – | inactive |
| Skadu | DRSC01490 | 140 | 81.6 | – | – | inactive |
| Gr5a | DRSC18085 | 121 | 129 | – | – | inactive |
| Acbp4 | DRSC11023 | 92.6 | 71.2 | – | – | inactive |
| CG15888 | DRSC15125 | 104 | 134 | – | – | inactive |
| msd1 | DRSC08383 | 126 | 175 | – | – | inactive |

16 entries from above, sorted by “calcium signal, replicate 1”, low to high.
| gene | DRSC id | calcium signal, replicate 1 | calcium signal, replicate 2 | retest calcium signal, replicate 1 | retest calcium signal, replicate 2 | call |
| --- | --- | --- | --- | --- | --- | --- |
| CG34444 | DRSC06435 | 70.7 | 134 | – | – | inactive |
| BTBD9 | DRSC22371 | 84.8 | 162 | – | – | inactive |
| Gr10b | DRSC19477 | 87.8 | 123 | – | – | inactive |
| CG14244 | DRSC14739 | 88.4 | 130 | – | – | inactive |
| RluA-2 | DRSC02939 | 90.1 | 106 | – | – | inactive |
| CG32633 | DRSC18987 | 92.5 | 67.7 | – | – | inactive |
| BTBD9 | DRSC18148 | 96.1 | 94.3 | – | – | inactive |
| ZnT35C | DRSC01959 | 96.2 | 157 | – | – | inactive |
| CG13405 | DRSC08310 | 102 | 101 | – | – | inactive |
| puf | DRSC23167 | 112 | 109 | – | – | inactive |
| CG8564 | DRSC10997 | 129 | 90.6 | – | – | inactive |
| Jasper | DRSC16352 | 134 | 136 | – | – | inactive |
| CG4880 | DRSC19923 | 145 | 89.7 | – | – | inactive |
| CG7536 | DRSC20050 | 169 | 91.9 | – | – | inactive |
| nAChRalpha1 | DRSC17008 | 202 | 132 | – | – | inactive |
| puf | DRSC15875 | 254 | 140 | – | – | inactive |
